Experimental data published in the supplement of paper PMC10849652.
The list shows a part of the results.

Chains of the proteins cited; added tags and fusions are not shown. Lines headed by an entry give the natural chain unless they say otherwise; changes in a name come on top.
UniProt P32019: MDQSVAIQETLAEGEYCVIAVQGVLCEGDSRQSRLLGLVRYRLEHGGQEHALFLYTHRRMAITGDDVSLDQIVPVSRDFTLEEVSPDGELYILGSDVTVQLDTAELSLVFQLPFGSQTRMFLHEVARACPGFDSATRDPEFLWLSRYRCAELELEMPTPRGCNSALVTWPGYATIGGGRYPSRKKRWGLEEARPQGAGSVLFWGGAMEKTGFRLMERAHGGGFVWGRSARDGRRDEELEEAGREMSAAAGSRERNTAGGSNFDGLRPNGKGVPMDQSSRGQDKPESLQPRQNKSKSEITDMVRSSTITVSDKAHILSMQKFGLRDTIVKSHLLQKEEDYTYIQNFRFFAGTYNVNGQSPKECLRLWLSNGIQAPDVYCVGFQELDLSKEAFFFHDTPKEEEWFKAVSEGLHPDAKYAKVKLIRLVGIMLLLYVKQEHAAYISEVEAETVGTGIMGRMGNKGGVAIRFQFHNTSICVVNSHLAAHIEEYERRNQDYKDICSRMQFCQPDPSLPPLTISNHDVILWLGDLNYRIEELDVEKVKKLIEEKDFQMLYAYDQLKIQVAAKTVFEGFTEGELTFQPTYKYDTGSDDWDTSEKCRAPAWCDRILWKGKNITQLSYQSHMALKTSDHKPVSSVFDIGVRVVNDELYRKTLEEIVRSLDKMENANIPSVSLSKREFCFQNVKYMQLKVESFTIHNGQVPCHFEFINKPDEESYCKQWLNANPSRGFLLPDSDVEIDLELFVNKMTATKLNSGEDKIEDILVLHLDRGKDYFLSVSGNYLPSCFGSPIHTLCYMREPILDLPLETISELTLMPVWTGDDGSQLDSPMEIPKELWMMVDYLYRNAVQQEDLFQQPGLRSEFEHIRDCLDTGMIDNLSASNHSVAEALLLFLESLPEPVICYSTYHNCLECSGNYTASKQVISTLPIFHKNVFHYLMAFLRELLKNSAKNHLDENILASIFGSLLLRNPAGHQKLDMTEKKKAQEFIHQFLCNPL
UniProt Q9H6K1: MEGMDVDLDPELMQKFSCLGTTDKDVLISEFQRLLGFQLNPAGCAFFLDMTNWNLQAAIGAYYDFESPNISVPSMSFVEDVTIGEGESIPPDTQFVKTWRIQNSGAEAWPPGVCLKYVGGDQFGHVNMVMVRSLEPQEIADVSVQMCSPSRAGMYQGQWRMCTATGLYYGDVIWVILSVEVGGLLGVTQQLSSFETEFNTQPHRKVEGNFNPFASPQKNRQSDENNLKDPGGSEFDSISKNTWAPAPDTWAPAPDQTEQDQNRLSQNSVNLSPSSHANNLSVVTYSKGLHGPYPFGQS
UniProt Q9P2H3, whole entry, looked up: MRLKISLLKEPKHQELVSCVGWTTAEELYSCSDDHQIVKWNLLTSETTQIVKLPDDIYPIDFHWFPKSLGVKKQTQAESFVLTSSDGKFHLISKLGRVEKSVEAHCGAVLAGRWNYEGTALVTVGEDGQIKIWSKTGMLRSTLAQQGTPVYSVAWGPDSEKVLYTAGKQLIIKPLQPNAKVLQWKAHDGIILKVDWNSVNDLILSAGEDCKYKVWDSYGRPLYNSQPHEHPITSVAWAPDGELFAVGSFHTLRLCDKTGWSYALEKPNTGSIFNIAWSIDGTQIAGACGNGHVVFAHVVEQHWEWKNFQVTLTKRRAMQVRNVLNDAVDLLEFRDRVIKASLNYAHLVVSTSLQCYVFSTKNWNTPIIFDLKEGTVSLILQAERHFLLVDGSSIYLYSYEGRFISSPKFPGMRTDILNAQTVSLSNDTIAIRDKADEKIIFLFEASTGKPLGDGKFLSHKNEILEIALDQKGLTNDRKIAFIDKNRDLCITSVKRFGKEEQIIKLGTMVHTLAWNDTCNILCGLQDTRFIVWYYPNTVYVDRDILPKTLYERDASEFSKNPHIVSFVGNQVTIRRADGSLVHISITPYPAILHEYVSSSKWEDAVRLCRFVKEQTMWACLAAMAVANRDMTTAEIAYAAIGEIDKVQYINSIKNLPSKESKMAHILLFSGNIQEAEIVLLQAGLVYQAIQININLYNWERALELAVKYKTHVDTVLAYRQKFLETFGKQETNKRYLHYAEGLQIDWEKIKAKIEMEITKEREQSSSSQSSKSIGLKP
UniProt Q01628, whole entry, looked up: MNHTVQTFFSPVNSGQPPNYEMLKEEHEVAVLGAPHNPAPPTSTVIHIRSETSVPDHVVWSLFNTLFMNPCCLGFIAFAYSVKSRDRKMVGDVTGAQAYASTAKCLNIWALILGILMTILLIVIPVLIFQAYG
UniProt P18065: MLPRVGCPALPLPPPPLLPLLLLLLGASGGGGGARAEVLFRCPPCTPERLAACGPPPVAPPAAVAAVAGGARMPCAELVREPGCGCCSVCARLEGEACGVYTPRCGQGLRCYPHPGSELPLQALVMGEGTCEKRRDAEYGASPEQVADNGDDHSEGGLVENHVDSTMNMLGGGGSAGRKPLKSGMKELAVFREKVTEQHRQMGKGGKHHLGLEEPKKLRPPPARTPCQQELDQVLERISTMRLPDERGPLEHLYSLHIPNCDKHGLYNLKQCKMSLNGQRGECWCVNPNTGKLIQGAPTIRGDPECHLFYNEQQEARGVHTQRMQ
UniProt Q8IWB1: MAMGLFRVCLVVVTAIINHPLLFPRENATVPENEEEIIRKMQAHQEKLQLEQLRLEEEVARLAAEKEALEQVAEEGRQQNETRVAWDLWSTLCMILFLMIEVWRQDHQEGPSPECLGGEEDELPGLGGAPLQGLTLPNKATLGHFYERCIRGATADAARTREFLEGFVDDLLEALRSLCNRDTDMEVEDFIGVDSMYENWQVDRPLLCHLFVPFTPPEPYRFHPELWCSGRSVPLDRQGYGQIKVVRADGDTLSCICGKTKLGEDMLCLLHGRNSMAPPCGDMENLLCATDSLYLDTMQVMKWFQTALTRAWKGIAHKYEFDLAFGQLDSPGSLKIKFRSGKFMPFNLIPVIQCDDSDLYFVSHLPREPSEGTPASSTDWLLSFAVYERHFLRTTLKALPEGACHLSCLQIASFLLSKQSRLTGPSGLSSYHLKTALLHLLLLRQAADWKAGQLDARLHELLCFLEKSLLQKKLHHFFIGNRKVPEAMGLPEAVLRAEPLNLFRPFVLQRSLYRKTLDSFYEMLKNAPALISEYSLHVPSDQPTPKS
UniProt Q96LU5: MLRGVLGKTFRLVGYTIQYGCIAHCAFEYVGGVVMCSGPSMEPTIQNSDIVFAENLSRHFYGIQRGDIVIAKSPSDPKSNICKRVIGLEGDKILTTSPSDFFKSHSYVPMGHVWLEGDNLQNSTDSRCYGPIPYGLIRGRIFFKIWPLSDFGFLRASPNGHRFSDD
UniProt Q9Y287, whole entry, looked up: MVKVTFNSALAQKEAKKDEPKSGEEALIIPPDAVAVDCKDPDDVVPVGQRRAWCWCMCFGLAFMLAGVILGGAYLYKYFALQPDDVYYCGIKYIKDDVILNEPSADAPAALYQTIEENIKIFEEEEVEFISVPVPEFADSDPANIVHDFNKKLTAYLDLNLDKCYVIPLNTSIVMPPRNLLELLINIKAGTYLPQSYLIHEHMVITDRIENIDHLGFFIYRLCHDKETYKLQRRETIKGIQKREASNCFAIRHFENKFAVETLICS
UniProt Q9UI26: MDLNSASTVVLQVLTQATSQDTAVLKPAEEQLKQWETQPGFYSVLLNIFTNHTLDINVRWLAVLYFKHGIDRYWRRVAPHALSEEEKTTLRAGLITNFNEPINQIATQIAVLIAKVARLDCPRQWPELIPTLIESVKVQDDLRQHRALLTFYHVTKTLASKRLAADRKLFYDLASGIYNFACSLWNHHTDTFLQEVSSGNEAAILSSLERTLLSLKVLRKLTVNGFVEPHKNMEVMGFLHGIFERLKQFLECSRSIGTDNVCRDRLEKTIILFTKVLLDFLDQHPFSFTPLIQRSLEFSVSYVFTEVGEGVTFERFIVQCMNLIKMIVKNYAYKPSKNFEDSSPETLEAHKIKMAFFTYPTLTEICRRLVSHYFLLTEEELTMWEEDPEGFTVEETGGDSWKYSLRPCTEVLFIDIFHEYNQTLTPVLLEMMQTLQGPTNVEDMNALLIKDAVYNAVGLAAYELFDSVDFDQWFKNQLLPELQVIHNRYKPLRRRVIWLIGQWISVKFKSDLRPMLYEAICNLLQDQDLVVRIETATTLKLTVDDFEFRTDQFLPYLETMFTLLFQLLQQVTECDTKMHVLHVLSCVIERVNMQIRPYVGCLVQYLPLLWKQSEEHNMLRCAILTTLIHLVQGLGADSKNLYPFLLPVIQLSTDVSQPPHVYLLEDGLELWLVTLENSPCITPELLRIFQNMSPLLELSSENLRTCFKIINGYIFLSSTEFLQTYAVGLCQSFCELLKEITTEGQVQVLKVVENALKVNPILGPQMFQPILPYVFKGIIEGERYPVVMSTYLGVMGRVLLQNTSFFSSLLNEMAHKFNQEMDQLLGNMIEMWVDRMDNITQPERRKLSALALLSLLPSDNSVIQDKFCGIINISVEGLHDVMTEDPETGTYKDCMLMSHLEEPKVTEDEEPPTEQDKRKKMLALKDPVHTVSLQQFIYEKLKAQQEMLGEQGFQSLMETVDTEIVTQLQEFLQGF
UniProt Q13123, whole entry, looked up: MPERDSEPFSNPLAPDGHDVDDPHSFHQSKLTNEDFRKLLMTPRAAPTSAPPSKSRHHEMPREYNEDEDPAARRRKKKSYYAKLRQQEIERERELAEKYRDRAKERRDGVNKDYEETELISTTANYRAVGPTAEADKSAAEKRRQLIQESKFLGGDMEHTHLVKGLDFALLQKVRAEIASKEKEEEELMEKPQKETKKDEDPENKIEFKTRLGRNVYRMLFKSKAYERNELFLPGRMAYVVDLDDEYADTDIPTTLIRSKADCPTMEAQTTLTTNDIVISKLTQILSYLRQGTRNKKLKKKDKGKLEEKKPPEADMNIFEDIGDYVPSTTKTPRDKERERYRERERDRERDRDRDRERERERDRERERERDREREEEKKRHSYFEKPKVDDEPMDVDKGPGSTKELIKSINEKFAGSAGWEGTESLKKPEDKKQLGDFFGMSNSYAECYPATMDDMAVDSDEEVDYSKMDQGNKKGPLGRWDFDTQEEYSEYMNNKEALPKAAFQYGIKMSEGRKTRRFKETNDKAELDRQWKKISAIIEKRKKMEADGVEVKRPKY
UniProt O94829: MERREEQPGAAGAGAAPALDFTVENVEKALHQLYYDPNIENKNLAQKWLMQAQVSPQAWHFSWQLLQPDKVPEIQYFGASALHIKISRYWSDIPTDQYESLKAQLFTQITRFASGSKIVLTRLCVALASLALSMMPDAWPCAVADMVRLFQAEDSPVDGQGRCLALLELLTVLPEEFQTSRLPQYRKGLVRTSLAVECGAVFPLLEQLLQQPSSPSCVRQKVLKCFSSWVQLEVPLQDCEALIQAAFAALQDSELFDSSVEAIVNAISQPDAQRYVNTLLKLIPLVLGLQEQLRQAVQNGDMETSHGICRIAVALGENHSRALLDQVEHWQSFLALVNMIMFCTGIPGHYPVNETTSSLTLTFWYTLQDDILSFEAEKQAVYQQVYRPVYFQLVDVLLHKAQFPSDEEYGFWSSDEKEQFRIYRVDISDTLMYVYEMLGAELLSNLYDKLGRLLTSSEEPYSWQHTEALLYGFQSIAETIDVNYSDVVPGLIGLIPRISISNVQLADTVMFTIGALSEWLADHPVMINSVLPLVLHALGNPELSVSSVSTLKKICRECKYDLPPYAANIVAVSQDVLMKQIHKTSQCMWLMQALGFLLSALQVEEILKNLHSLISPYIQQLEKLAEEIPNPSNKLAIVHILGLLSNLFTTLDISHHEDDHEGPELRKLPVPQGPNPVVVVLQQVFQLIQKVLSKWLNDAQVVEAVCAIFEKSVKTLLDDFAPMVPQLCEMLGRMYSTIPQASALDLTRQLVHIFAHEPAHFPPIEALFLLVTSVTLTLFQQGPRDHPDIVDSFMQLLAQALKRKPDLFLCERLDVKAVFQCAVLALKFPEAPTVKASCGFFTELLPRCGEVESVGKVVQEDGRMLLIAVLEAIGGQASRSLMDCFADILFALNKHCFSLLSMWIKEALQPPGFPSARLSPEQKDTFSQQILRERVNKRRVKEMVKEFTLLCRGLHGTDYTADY
UniProt P50213: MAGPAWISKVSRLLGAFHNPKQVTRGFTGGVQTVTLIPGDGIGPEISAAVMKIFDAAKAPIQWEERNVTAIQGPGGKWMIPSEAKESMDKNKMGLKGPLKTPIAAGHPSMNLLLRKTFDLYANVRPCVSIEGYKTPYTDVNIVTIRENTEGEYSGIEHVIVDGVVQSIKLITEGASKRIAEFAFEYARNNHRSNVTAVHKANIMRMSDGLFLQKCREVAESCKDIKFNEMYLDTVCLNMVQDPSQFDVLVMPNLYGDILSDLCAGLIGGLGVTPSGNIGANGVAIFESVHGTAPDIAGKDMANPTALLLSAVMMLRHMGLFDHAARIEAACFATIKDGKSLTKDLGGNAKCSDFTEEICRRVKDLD

Experiments:
Experiment in all cases: log2 fold change, soluble protein after heating vs DMSO (PISA); higher = thermal stabilisation; K562 cells, 10 uM, 30 min; active = over 0.2 and 3.5 SD of the protein, either way, in both replicates (recomputed)
saracatinib = compound: CN1CCN(CCOc2cc(OC3CCOCC3)c3c(Nc4c(Cl)ccc5c4OCO5)ncnc3c2)CC1 [saracatinib]
How it was run: (§1)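 K562 cells at 2×10^6 cells/mL were treated for 30 min with 10 μM compound, and aliquots were heated for 3 min over 48°C-58°C before pooling. Extraction used PBS with 0.5% NP-40 at 4°C, and soluble protein was the supernatant after 21,000xg for 90 min, measured by TMTpro 16plex LC-MS/MS with channel sums equalised. Thermal stability values, relative to control samples and from duplicates, are log2 fold changes.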

sotrastaurin = compound: CN1CCN(c2nc(C3=C(c4c[nH]c5ccccc45)C(=O)NC3=O)c3ccccc3n2)CC1 [sotrastaurin]
How it was run: as §1

Tubastatin A = compound: CN1CCc2c(c3ccccc3n2Cc2ccc(C(=O)NO)cc2)C1 [Tubastatin A]
How it was run: as §1

[1] = compound: CNC(=O)C1=CC=CC=C1NC2=NC(=NC=C2Cl)NC3=C(C=C(C=C3)N4CCOCC4)OC
How it was run: as §1

defactinib = compound: CNC(=O)c1ccc(Nc2ncc(C(F)(F)F)c(NCc3nccnc3N(C)S(C)(=O)=O)n2)cc1 [defactinib]
How it was run: as §1

rucaparib = compound: CNCc1ccc(-c2[nH]c3cc(F)cc4c3c2CCNC4=O)cc1 [rucaparib]
How it was run: as §1

[2] = compound: CNc1nc(-c2ccc3c(N)n[nH]c3c2)cc(N2C[C@@H](C(=O)NC3CCCCC3)CC[C@H]2C)n1
How it was run: as §1

encorafenib = compound: COC(=O)N[C@@H](C)CNc1nccc(-c2cn(C(C)C)nc2-c2cc(Cl)cc(NS(C)(=O)=O)c2F)n1 [encorafenib]
How it was run: as §1

[3] = compound: COC(=O)[C@H](CCSC)NC(=O)C1=C(C=C(C=C1)NC[C@H](CS)N)C2=CC=CC=C2
How it was run: as §1

[4] = compound: COC1=CC=C(C=C1)CN2C=CC3=C2C=C(C=C3)C(=O)NO
How it was run: as §1

filanesib = compound: CON(C)C(=O)N1N=C(c2cc(F)ccc2F)S[C@@]1(CCCN)c1ccccc1 [filanesib]
How it was run: as §1

zotarolimus = compound: CO[C@H]1C[C@@H]2CC[C@@H](C)[C@@](O)(O2)C(=O)C(=O)N2CCCC[C@H]2C(=O)O[C@H]([C@H](C)C[C@@H]2CC[C@H](n3cnnn3)[C@H](OC)C2)CC(=O)[C@H](C)/C=C(\C)[C@@H](O)[C@@H](OC)C(=O)[C@H](C)C[C@H](C)/C=C/C=C/C=C/1C [zotarolimus]
How it was run: as §1

idasanutlin = compound: COc1cc(C(=O)O)ccc1NC(=O)[C@@H]1N[C@@H](CC(C)(C)C)[C@](C#N)(c2ccc(Cl)cc2F)[C@H]1c1cccc(Cl)c1F [idasanutlin]
How it was run: as §1

alisertib = compound: COc1cc(Nc2ncc3c(n2)-c2ccc(Cl)cc2C(c2c(F)cccc2OC)=NC3)ccc1C(=O)O [alisertib]
How it was run: as §1

[5] = compound: COc1cc2nc(-c3cc(F)ccc3O)nc(N[C@@H]3CNC[C@H]3C(C)(C)O)c2cc1OC
How it was run: as §1

gefitinib = compound: COc1cc2ncnc(Nc3ccc(F)c(Cl)c3)c2cc1OCCCN1CCOCC1 [gefitinib]
How it was run: as §1

[6] = compound: COc1cccc2cc(-c3nc([C@H]4CC[C@H](C(=O)O)CC4)n4ncnc(N)c34)[nH]c12
How it was run: as §1

lapatinib = compound: CS(=O)(=O)CCNCc1ccc(-c2ccc3ncnc(Nc4ccc(OCc5cccc(F)c5)c(Cl)c4)c3c2)o1 [lapatinib]
How it was run: as §1

pictilisib = compound: CS(=O)(=O)N1CCN(Cc2cc3nc(-c4cccc5[nH]ncc45)nc(N4CCOCC4)c3s2)CC1 [pictilisib]
How it was run: as §1

alvocidib = compound: CN1CC[C@H](c2c(O)cc(O)c3c(=O)cc(-c4ccccc4Cl)oc23)[C@H](O)C1 [alvocidib]
How it was run: as §1

| Target | log2 fold change (saracatinib) | log2 fold change (sotrastaurin) | log2 fold change (Tubastatin A) | log2 fold change [1] | log2 fold change (defactinib) | log2 fold change (rucaparib) | log2 fold change [2] | log2 fold change (encorafenib) | log2 fold change [3] | log2 fold change [4] | log2 fold change (filanesib) | log2 fold change (zotarolimus) | log2 fold change (idasanutlin) | log2 fold change (alisertib) | log2 fold change [5] | log2 fold change (gefitinib) | log2 fold change [6] | log2 fold change (lapatinib) | log2 fold change (pictilisib) | log2 fold change (alvocidib) |
| --- | --- | --- | --- | --- | --- | --- | --- | --- | --- | --- | --- | --- | --- | --- | --- | --- | --- | --- | --- | --- |
| INPP5B (UniProt P32019) | inactive: 0.024 | inactive: -0.079 | inactive: 0.07 | inactive: -0.007 | inactive: 0.112 | inactive: 0.066 | inactive: 0.043 | inactive: -0.151 | inactive: 0.141 | inactive: 0 | inactive: -0.015 | inactive: 0.002 | inactive: -0.003 | inactive: 0.03 | inactive: 0.052 | inactive: -0.008 | inactive: -0.043 | inactive: 0.006 | inactive: 0.04 |  |
| ILRUN (UniProt Q9H6K1) | inactive: -0.132 | inactive: -0.029 | inactive: 0.116 | inactive: 0.023 | inactive: -0.036 | inactive: 0.037 | inactive: 0.049 | inactive: 0.045 | inactive: 0.121 | inactive: -0.051 | inactive: -0.016 | inactive: 0.042 | inactive: -0.101 | inactive: -0.03 | inactive: -0.002 | inactive: 0.048 | inactive: 0.09 | inactive: 0.08 |  |  |
| IFT80 isoform 3 (UniProt Q9P2H3) | inactive: -0.016 | inactive: 0.029 | inactive: 0.094 | inactive: 0.01 | inactive: -0.023 | inactive: 0.029 | inactive: -0.007 | inactive: 0.056 | inactive: 0.014 | inactive: -0.128 | inactive: -0.043 | inactive: 0.003 | inactive: -0.066 | inactive: -0.039 | inactive: 0.01 | inactive: -0.07 | inactive: 0.04 | inactive: -0.038 | inactive: 0.034 |  |
| ITIH4 (UniProt Q14624) | inactive: 0.045 | inactive: 0.271 | inactive: -0.003 | inactive: -0.001 | inactive: 0.101 | inactive: -0.142 | inactive: -0.124 | inactive: -0.001 | inactive: -0.009 | inactive: 0.252 | inactive: -0.174 | active: -0.896 | inactive: 0.184 | inactive: -0.047 | inactive: -0.146 | inactive: -0.093 | inactive: 0.277 | inactive: -0.034 | inactive: -0.241 |  |
| IFITM3 (UniProt Q01628) | inactive: -0.022 | inactive: 0.035 | inactive: 0.241 | inactive: 0.044 | inactive: -0.165 | inactive: 0.093 | inactive: 0.03 | inactive: 0.1 | inactive: 0.008 | inactive: 0.055 | inactive: 0.008 | inactive: 0.007 | inactive: 0.07 | inactive: -0.121 | inactive: -0.017 | inactive: 0.09 | inactive: 0.089 | inactive: 0.004 |  |  |
| INF2 (UniProt Q27J81) | inactive: -0.127 | inactive: -0.124 |  |  |  |  | inactive: -0.057 |  |  | inactive: 0.062 | inactive: 0.16 | inactive: -0.013 | inactive: 0.066 | inactive: -0.12 |  | inactive: 0.154 | inactive: -0.005 |  |  | inactive: 0.095 |
| IGFBP4 (UniProt P22692) | inactive: 0.004 | inactive: 0.114 | inactive: -0.034 | inactive: -0.044 | inactive: 0.036 | inactive: 0.007 | inactive: -0.019 | inactive: -0.034 | inactive: 0.014 | inactive: -0.075 | inactive: 0.012 | inactive: -0.31 | active: 0.392 | inactive: 0.009 | inactive: -0.024 | inactive: -0.107 | inactive: 0.179 | inactive: -0.036 | inactive: -0.022 |  |
| IFT74 (UniProt Q96LB3) | inactive: -0.079 | inactive: -0.001 | inactive: 0.259 | inactive: -0.223 | inactive: 0.028 | inactive: 0.06 | inactive: 0.003 | inactive: -0.055 | inactive: 0.075 | inactive: 0.083 | inactive: -0.014 | inactive: 0.019 | inactive: -0.058 | inactive: -0.102 | inactive: 0.339 | inactive: 0.035 | inactive: 0.024 | inactive: -0.025 | inactive: 0.052 |  |
| IGFBP2 (UniProt P18065) | inactive: -0.049 | inactive: 0.223 | inactive: -0.032 | inactive: -0.06 | inactive: 0.134 | inactive: 0.003 | inactive: -0.148 | inactive: 0.028 | inactive: -0.053 | inactive: 0.117 | inactive: -0.238 | active: -0.846 | inactive: 0.439 | inactive: 0.11 | inactive: -0.056 | inactive: -0.228 | inactive: 0.363 | inactive: -0.025 | inactive: -0.252 |  |
| ITPRIP (UniProt Q8IWB1) | inactive: -0.028 | inactive: 0.016 | inactive: 0.034 | inactive: 0.011 | inactive: -0.037 | inactive: 0.034 | inactive: -0.084 | inactive: -0.009 | inactive: 0.013 | inactive: -0.042 | inactive: -0.022 | inactive: -0.024 | inactive: 0.014 | inactive: 0.012 | inactive: -0.021 | inactive: 0.018 | inactive: -0.043 | inactive: -0.038 | inactive: 0.049 |  |
| IMMP1L (UniProt Q96LU5) | inactive: -0.041 | inactive: -0.005 | inactive: -0.024 | inactive: -0.01 | inactive: 0.011 | inactive: -0.039 | inactive: -0.102 | inactive: -0.037 | inactive: -0.027 | inactive: -0.041 | inactive: -0.067 | inactive: -0.034 | inactive: -0.067 | active: -0.252 | inactive: 0.005 | inactive: -0.022 | inactive: 0.016 | inactive: -0.062 |  |  |
| ITM2B (UniProt Q9Y287) | inactive: -0.181 | inactive: 0.123 | inactive: 0.143 | inactive: 0.06 | inactive: -0.007 | inactive: 0.007 | inactive: 0.091 | inactive: 0.098 | inactive: -0.096 | inactive: -0.109 | inactive: 0.092 | inactive: -0.042 | inactive: -0.03 | inactive: 0.083 | inactive: -0.037 | inactive: -0.047 | inactive: 0.138 | inactive: -0.116 |  |  |
| IPO11 isoform 2 (UniProt Q9UI26) | inactive: 0.048 | inactive: -0.02 | inactive: -0.043 | inactive: 0.01 | inactive: -0.013 | inactive: -0.053 | inactive: -0.03 | inactive: -0.004 | inactive: 0.012 | inactive: 0.036 | inactive: -0.045 | inactive: 0.002 | inactive: -0.087 | inactive: -0.023 | inactive: -0.006 | inactive: -0.049 | inactive: 0.04 | inactive: 0.005 | inactive: 0.028 |  |
| IK (UniProt Q13123) | inactive: -0.006 | inactive: -0.037 | inactive: 0.05 | inactive: -0.036 | inactive: 0.013 | inactive: 0.198 | inactive: -0.059 | inactive: 0.197 | inactive: 0.002 | inactive: 0.056 | inactive: 0.156 | inactive: 0.007 | inactive: 0.102 | inactive: -0.044 | inactive: 0.07 | inactive: 0.027 | inactive: -0.096 | inactive: -0.008 | inactive: -0.035 |  |
| IPO13 (UniProt O94829) | inactive: 0.111 | inactive: -0.123 | inactive: -0.03 | inactive: 0.001 | inactive: -0.04 | inactive: -0.016 | inactive: -0.109 | inactive: 0.039 | inactive: 0.033 | inactive: -0.017 | inactive: -0.144 | inactive: -0.039 | inactive: -0.038 | inactive: 0.021 | inactive: -0.024 | inactive: -0.047 | inactive: 0.008 | inactive: 0.038 | inactive: 0.109 |  |
| IDH3A (UniProt P50213) | inactive: -0.004 | inactive: 0.008 | inactive: -0.058 | inactive: -0.026 | inactive: -0.023 | inactive: -0.031 | inactive: -0.026 | inactive: -0.01 | inactive: 0.002 | inactive: 0 | inactive: -0.067 | inactive: 0.007 | inactive: -0.074 | inactive: -0.063 | inactive: -0.009 | inactive: 0.039 | inactive: 0.022 | inactive: 0.017 | inactive: -0.021 |  |
| ING1 (UniProt Q9UK53) |  | inactive: 0.07 | inactive: -0.056 |  |  | inactive: 0.366 |  | inactive: -0.019 |  | inactive: -0.432 | inactive: 0.031 | inactive: 0.125 | inactive: 0.054 | inactive: -0.428 |  |  | inactive: -0.193 |  |  | inactive: -0.063 |
| ISL2 (UniProt H0YN25) | inactive: -0.157 |  |  |  |  |  | inactive: 0.07 |  |  |  |  |  |  |  |  |  |  |  |  |  |

An excerpt from above, showing only log2 fold change (defactinib).
Target | log2 fold change (defactinib)
IFT80 isoform 3 (UniProt Q9P2H3) | inactive: -0.023
IMMP1L (UniProt Q96LU5) | inactive: 0.011
